Measured values reported in patent publication US20110117106A1, “USES OF CALPAIN INHIBITORS TO INHIBIT INFLAMMATION” (priority 2008, published 2011).
These are yes or no findings as the source states them, for the method shown. In cells and extracts the contact can be indirect. Some binding calls cover weakened binding; strength is not graded here.

Amino acid sequences for entries named in this document (tags omitted). Residues count along the entry.
UniProt P12830, residues 155-882: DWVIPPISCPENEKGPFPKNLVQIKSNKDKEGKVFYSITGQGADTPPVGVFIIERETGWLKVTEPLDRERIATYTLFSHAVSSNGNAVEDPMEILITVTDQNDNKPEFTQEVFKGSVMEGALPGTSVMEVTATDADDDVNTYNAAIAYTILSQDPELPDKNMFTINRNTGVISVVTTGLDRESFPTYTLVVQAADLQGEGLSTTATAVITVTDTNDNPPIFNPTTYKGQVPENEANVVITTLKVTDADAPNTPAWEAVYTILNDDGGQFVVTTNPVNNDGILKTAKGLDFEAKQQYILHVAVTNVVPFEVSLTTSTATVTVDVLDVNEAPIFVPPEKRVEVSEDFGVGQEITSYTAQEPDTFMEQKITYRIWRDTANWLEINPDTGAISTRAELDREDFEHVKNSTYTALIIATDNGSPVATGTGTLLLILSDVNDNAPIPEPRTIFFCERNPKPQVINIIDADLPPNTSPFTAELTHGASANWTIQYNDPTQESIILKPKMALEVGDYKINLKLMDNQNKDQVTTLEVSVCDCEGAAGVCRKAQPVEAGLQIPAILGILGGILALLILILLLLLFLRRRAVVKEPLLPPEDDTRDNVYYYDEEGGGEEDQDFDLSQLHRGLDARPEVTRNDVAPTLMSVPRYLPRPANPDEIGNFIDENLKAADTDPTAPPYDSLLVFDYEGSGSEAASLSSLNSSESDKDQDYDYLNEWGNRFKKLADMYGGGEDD
UniProt P17655, residues 2-700: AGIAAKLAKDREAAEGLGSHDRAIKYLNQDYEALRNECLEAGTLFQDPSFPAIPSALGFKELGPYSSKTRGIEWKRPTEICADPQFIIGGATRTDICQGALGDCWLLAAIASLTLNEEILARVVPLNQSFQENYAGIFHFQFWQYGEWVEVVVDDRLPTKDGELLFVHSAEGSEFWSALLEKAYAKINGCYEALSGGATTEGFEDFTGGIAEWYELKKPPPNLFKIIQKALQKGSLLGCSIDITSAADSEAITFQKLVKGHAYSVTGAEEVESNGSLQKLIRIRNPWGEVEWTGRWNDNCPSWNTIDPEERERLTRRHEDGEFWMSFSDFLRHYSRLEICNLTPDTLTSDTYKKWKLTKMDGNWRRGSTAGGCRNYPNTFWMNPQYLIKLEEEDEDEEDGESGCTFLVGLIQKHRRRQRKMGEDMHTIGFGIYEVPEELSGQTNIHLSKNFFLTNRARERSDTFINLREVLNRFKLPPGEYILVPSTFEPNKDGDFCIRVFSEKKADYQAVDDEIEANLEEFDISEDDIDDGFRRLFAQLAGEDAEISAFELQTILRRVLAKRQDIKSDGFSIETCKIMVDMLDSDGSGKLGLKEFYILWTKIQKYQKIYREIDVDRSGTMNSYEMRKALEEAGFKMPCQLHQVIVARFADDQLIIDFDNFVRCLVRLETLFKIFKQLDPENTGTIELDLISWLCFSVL

Molecular target: E-cadherin (human) (UniProt P12830)
Assay: co-immunoprecipitation and confocal imaging, human airway epithelial cells stimulated with TLR2 ligands

- binding: binds
Substance: calpain 2 (m-calpain) (from UniProt P17655 2-700) (enzyme)
